{"sequences": {"note": "Chains of the proteins cited; added tags and fusions are not shown.", "UniProt Q8NER1, whole entry, looked up": "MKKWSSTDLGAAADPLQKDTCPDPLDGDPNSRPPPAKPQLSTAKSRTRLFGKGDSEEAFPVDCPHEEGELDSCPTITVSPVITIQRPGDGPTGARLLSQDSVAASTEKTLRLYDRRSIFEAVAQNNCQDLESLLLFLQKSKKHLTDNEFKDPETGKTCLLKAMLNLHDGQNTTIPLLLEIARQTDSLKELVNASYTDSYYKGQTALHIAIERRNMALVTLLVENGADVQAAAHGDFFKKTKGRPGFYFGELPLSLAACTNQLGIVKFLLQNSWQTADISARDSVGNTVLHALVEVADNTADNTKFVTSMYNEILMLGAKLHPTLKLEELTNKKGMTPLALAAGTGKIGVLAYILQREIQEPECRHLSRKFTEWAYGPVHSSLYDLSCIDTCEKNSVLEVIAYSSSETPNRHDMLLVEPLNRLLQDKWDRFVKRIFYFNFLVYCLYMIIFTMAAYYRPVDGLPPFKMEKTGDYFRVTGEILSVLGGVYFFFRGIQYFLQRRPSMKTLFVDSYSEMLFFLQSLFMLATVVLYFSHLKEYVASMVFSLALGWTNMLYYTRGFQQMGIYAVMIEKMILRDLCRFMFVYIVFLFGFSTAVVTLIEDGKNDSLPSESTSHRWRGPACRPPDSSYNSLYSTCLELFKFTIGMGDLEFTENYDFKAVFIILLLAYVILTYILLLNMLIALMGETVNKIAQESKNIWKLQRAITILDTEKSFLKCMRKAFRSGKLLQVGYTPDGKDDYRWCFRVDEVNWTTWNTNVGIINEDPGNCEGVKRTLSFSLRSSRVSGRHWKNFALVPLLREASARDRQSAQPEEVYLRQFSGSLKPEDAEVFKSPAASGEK"}, "source": "PubChem BioAssay AID540275", "about": "(National Center for Advancing Translational Sciences (NCATS), 2011)", "note": "The whole screen tested about 320,000 compounds, of which about 620 (0.19%) were called active. The shares of active, inactive and inconclusive entries below differ from those in the screen. No stated cut-off is given here; in the data, active means activation above about 80%; inconclusive means between about 30% and that limit; inactive means weaker than that.", "data": [{"biological_target": "Transient receptor potential cation channel subfamily V member 1 (Homo sapiens) (UniProt Q8NER1)", "experiment": "HTS Assay for Compounds that Act as Agonists of the Vanilloid Receptor 1; further: 0% is about no effect", "conditions": "TRPV1-expressing cells, Fluo-8 calcium influx, agonist mode; at 8.33 µM, active compounds read high", "procedure,_shortened": "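Fluo-8 calcium influx in TRPV1-expressing cells, kinetic read (ex 480/em 520 nm). Compound added and read 3 min for agonist activity, followed by capsaicin at EC20 final and 2 min further read for enhancement.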", "values": [{"compound": "O=C1C=C(NCc2ccc(Cl)c(Cl)c2)C2(CCCCC2)O1", "activation": "inconclusive: 34.7%"}, {"compound": "CC(=O)c1ccc(OCC(O)Cn2nnc3ccccc32)cc1", "note": "(stereo not given)", "activation": "inactive: 0.844%"}, {"compound": "Cc1ccc(NC(=O)N2CCN(C(=O)c3ccco3)CC2)cc1Cl", "activation": "inactive: 12.3%"}, {"compound": "COc1ccc(C(C(=O)NC2CCCC2)N(C(=O)c2ccco2)c2cc3c(cc2C(C)=O)OCO3)cc1", "note": "(stereo not given)", "activation": "inactive: 1.98%"}, {"compound": "O=C(COc1ccc(Cc2ccccc2)cc1)c1ccc(F)cc1", "activation": "inconclusive: 63.5%"}, {"compound": "Cc1ccc(-c2cc(N)nc(-c3ccccc3)c2)cc1", "activation": "inconclusive: 59.9%"}, {"compound": "COc1ccc2nc3oc(C(=O)Nc4ccc(OC)c(OC)c4)cc3cc2c1", "activation": "inconclusive: 68.7%"}, {"compound": "CCOc1ccc(S(=O)(=O)N2CCOCC2)cc1NC(=O)c1ccccc1F", "activation": "inconclusive: 30.9%"}, {"compound": "COc1ccc(Nc2nc(C(=O)NCc3ccco3)cs2)cc1", "activation": "inconclusive: 60.1%"}, {"compound": "S=c1[nH]nc(-c2cccs2)n1Cc1ccccc1", "activation": "inactive: 0.856%"}, {"compound": "CN(C(=O)CSc1nnc(-c2ccc(C(C)(C)C)cc2)n1C)C1CCS(=O)(=O)C1", "note": "(stereo not given)", "activation": "inactive: 1.75%"}, {"compound": "CC(=O)c1cnc(Nc2cccc(C)c2)s1", "activation": "inconclusive: 32%"}, {"compound": "O=C(CCC1CCCN(c2ncccn2)C1)NCc1ccccc1F", "note": "(stereo not given)", "activation": "inconclusive: 30.3%"}, {"compound": "CC1CCC(C(C)C)C(OC(=O)COC(=O)c2cccn2C)C1", "note": "(stereo not given)", "activation": "inconclusive: 35.9%"}, {"compound": "CCC1Nc2ncnc(N3CCN(c4ccccc4)CC3)c2N(Cc2ccc(C)cc2)C1=O", "note": "(stereo not given)", "activation": "inconclusive: 37%"}, {"compound": "Nc1nnc(SCC(=O)Nc2sc3c(c2C(=O)c2ccccc2)CCCC3)s1", "activation": "inactive: 24.8%"}, {"compound": "COc1cc(/C=N/NC(=O)c2nonc2C)ccc1O", "activation": "inactive: 1.24%"}, {"compound": "O=C(N/N=C/c1ccc(Br)o1)c1ccc2c(c1)OCCO2", "activation": "inconclusive: 35.3%"}, {"compound": "CNC(=O)C1CCN(S(=O)(=O)c2c(C)noc2/C=C/c2ccc(C)cc2)CC1", "activation": "inconclusive: 31%"}, {"compound": "O=C(O)C1CC(c2ccccc2)=Nc2ccccc2S1", "note": "(stereo not given)", "activation": "inconclusive: 34.9%"}, {"compound": "CCOC(=O)CSc1cc(CS(=O)(=O)c2ccccc2)nc(-c2ccccc2)n1", "activation": "inconclusive: 50.5%"}, {"compound": "Cc1ccc(SCc2ccc(C(=O)N3CCCC3)cc2)cc1", "activation": "inactive: 17.9%"}, {"compound": "Cc1ccsc1CN(C)C(=O)C(NC(=O)c1cccc(S(=O)(=O)N2CCOCC2)c1)C(C)C", "note": "(stereo not given)", "activation": "inconclusive: 42.8%"}, {"compound": "NS(=O)(=O)c1ccc(NC(=O)COC(=O)C2(c3ccccc3F)CCCC2)cc1", "activation": "inconclusive: 60.9%"}, {"compound": "Fc1cnc(N2CCN(c3ccccc3)CC2)nc1N1CCN(c2ccccc2)CC1", "activation": "inactive: -1.83%"}, {"compound": "CCCc1cc(C(=O)N2CCCC(Cc3ccccc3C)(C(=O)OCC)C2)no1", "note": "(stereo not given)", "activation": "inconclusive: 42.7%"}, {"compound": "CCc1ccc(CN(Cc2cccnc2)C(=O)/C=C/c2ccc(OC)cc2)cc1", "activation": "inconclusive: 39.7%"}, {"compound": "O=C(NCC1CCCO1)c1cccc(Oc2c(Cl)cccc2[N+](=O)[O-])c1", "note": "(stereo not given)", "activation": "inconclusive: 31.5%"}, {"compound": "COc1ccc(/C=C/C(=O)CC(O)(c2ccccc2)C(F)(F)F)cc1", "note": "(stereo not given)", "activation": "inactive: 7.76%"}, {"compound": "Cc1cccc(CSCCNC(=O)Nc2ccccc2)c1", "activation": "inconclusive: 66.4%"}, {"compound": "COCCOCC(=O)Nc1ccc(S(=O)(=O)Nc2cc(C)nc(C)n2)cc1", "activation": "inactive: -2.71%"}, {"compound": "O=C(C1=C[C@@H](c2ccc(Br)cc2)C[C@@H](OCc2ccc(CO)cc2)O1)N1CCOCC1", "activation": "inconclusive: 71.4%"}, {"compound": "CCc1ccccc1NC(=S)N1CCN(c2cccc(OC)c2)CC1", "activation": "inactive: 2.04%"}, {"compound": "Cc1ccc(C(=O)Nc2cccnc2)cc1S(=O)(=O)N1CCCCC1", "activation": "inconclusive: 56.3%"}, {"compound": "c1ccc(CNc2ncnc3sc4c(c23)CCCC4)nc1", "activation": "inconclusive: 32.9%"}, {"compound": "O=C(c1ccccc1)c1sc(N2CCOCC2)nc1-c1ccccc1", "activation": "inconclusive: 45.5%"}, {"compound": "O=C(Nc1ccc(F)cc1)NC1CCCCC1", "activation": "inconclusive: 46.6%"}, {"compound": "CCN(CC)S(=O)(=O)c1ccc(Cl)c(NC(=O)COC(=O)c2c(C)noc2C)c1", "activation": "inactive: 3.93%"}, {"compound": "CCCNC(=S)NCc1ccc(Cl)cc1", "activation": "inconclusive: 53.3%"}, {"compound": "COc1cc([N+](=O)[O-])ccc1-c1ccc(/C=N/NC(=O)c2ccccc2O)o1", "activation": "inactive: -2.21%"}, {"compound": "CCCCc1ccc(NC(=S)NCc2ccccc2OC)cc1", "activation": "inconclusive: 54.8%"}, {"compound": "Cc1ccc(Cn2nnc3c(=O)n(CC(=O)N4CCCc5ccccc54)cnc32)cc1", "activation": "inconclusive: 38.3%"}, {"compound": "CN1CCC(N(C)C(=O)c2ccc(Cl)c(S(=O)(=O)N3CCOCC3)c2)CC1", "activation": "inactive: -6.91%"}, {"compound": "CCOC(=O)N/N=C\\c1ccc(OC(=O)c2ccco2)cc1", "activation": "inactive: -1.13%"}, {"compound": "COC(CNC(=O)c1cnn2c(C)c(Cc3ccccc3)c(C)nc12)OC", "activation": "inconclusive: 31.3%"}, {"compound": "COc1ccc(-c2csc3nc(C)nc(N4CCN(c5ccc(C(C)=O)cc5)CC4)c23)cc1OC", "activation": "inactive: 0.162%"}, {"compound": "Cc1ccc2cc(C)c(N3CCN(c4ccccn4)CC3)nc2c1", "activation": "inconclusive: 53.1%"}, {"compound": "S=C(NCc1ccccc1)NC1CCCCC1", "activation": "inconclusive: 49.4%"}, {"compound": "NC(N)=NS(=O)(=O)c1ccc(NC(=S)NC(=O)c2ccccc2)cc1", "activation": "inactive: 0.885%"}, {"compound": "Cc1cc(C)cc(NC(=O)Nc2ccccc2N2CCCCC2)c1", "activation": "inconclusive: 32.1%"}, {"compound": "O=C(Nc1ccccn1)c1ccc(COc2ccccc2Cl)o1", "activation": "inconclusive: 36.1%"}, {"compound": "C=CCNc1oc(-c2ccco2)nc1S(=O)(=O)c1ccccc1", "activation": "inactive: 0.39%"}, {"compound": "COc1ccc(CNC(=O)CCNS(=O)(=O)c2ccc(Cl)cc2)cc1", "activation": "inactive: 0.818%"}, {"compound": "Cc1ccc(C)c(Cn2nnc3c(=O)[nH]c(C4CCN(S(=O)(=O)c5ccc(S(=O)(=O)NC6CC6)cc5)CC4)nc32)c1", "activation": "inactive: -3.9%"}, {"compound": "CCc1c(C)nc(SC/C=C/c2ccccc2)[nH]c1=O", "activation": "inactive: 7.44%"}, {"compound": "COc1ccccc1OCc1ccc(C(=O)Nc2ccccc2)cc1", "activation": "inconclusive: 54.5%"}, {"compound": "Cc1cc(C(=O)Nc2ccc(S(=O)(=O)N3CCCC3)cc2)cs1", "activation": "inconclusive: 64.9%"}, {"compound": "Cn1c2ccccc2c2ncn(Cc3ccco3)c(=O)c21", "activation": "inactive: -3.38%"}, {"compound": "CN1CCN(C(=O)C2=C[C@@H](c3csc4ccccc34)C[C@@H](OCCCCO)O2)CC1", "activation": "inconclusive: 32.4%"}, {"compound": "CN(Cc1ccno1)Cc1cn(Cc2ccccc2)nc1-c1ccc2c(c1)OCO2", "activation": "inactive: -4.32%"}, {"compound": "CCOC(=O)Cc1csc(NC(=O)/C=C/c2ccccc2Cl)n1", "activation": "inconclusive: 33.1%"}, {"compound": "CN(C)CCCN(C(=O)CCOc1ccccc1)c1nc2ccc(F)cc2s1", "activation": "inactive: -0.74%"}, {"compound": "COc1cc2c(cc1OC)C1=NC(=O)CN1C(SCc1ccccc1)=N2", "activation": "inactive: 2.03%"}, {"compound": "COc1cc(NC(=O)c2cccs2)c(OC)cc1NC(=O)Cc1ccccc1", "activation": "inconclusive: 35.7%"}, {"compound": "O=C(Nc1cccc(S(=O)(=O)N2CCOCC2)c1)c1cc2ccccc2o1", "activation": "inconclusive: 58.2%"}, {"compound": "NNC(=O)c1cccc(COc2ccc(Br)cc2)c1", "activation": "inconclusive: 40.3%"}, {"compound": "COc1ccc(CC2(CO)CCN(Cc3cnn(-c4ccccc4)c3)CC2)cc1", "activation": "inactive: 3.7%"}, {"compound": "O=S1(=O)CC/C(=N/Nc2ccc(C(F)(F)F)cn2)c2cc(F)ccc21", "activation": "inconclusive: 30.3%"}, {"compound": "COC(=O)c1ccc(C)c(NC(=S)NCc2ccc(Cl)cc2)c1", "activation": "inconclusive: 56.2%"}, {"compound": "COc1ccccc1NC(=O)c1ccc(C)c(S(=O)(=O)N2CCCCC2)c1", "activation": "inconclusive: 52.7%"}, {"compound": "O=C1c2cccc3c(N4CCCCC4)ccc(c23)C(=O)N1CCO", "activation": "inconclusive: 59.8%"}, {"compound": "Cc1cc(C)n(-c2nc(N(c3ccccc3)c3ccccc3)nc(-n3nc(C)cc3C)n2)n1", "activation": "inconclusive: 44.8%"}, {"compound": "Cc1cc(C)nc(N/N=C2/CCCC/C2=C\\c2ccccc2)n1", "activation": "inactive: 16.1%"}, {"compound": "Cn1cccc1CNC(=O)Nc1ccc(Cl)cc1", "activation": "inconclusive: 56.4%"}, {"compound": "C/C(=N\\Nc1nnc(-c2ccccc2)c(-c2ccccc2)n1)c1cccc([N+](=O)[O-])c1", "activation": "inconclusive: 36%"}, {"compound": "COc1ccc(C)cc1NC(=O)CSc1nnc(-c2ccc(Br)cc2)o1", "activation": "inconclusive: 76.5%"}, {"compound": "CCC(C(=O)NC(C)(C)C)N(C(=O)c1ccc(Cl)nc1)C1CCCC1", "note": "(stereo not given)", "activation": "inactive: 2.29%"}, {"compound": "O=C(CNC(=O)c1ccc(F)cc1)c1ccccc1", "activation": "inconclusive: 32.9%"}, {"compound": "COc1ccc2[nH]c3c(Cl)ncnc3c2c1", "activation": "inactive: -2.18%"}, {"compound": "O=C(C1=NN(c2ccccc2)C2C(=O)N(c3ccccc3Cl)C(=O)C12)c1ccccc1", "note": "(stereo not given)", "activation": "inconclusive: 52.6%"}, {"compound": "O=C(Nc1ccc(F)cc1)N1CCN(c2ccc(F)cc2)CC1", "activation": "inconclusive: 71.8%"}, {"compound": "COc1ccc(CCN2C(=O)CC(C(N)=O)SC2=Nc2ccccc2)cc1OC", "note": "(stereo not given)", "activation": "inactive: 1.11%"}, {"compound": "N#CC(C#N)=C1C=CC=CN1/C(=C\\c1ccccc1)C(=O)c1cccs1", "activation": "inactive: -6.08%"}, {"compound": "CN(C)CCCN(CCCN(C)C)C(=S)Nc1ccc(S(=O)(=O)N2CCOCC2)cc1", "activation": "inactive: -3.3%"}, {"compound": "COc1ccccc1OCC(=O)OC/C(O)=C(\\C#N)c1nc2ccccc2[nH]1", "activation": "inactive: -3.03%"}, {"compound": "Cc1nn2c(N3CCN(C(=O)c4ccco4)CC3)cc(C(C)(C)C)nc2c1-c1ccc(Cl)cc1", "activation": "inconclusive: 45.3%"}, {"compound": "FC(F)(F)c1cccc(-c2ccc(-c3csnn3)o2)c1", "activation": "inconclusive: 41%"}, {"compound": "COc1cccc(CN(C)CC(=O)Nc2ccccc2N2CCOCC2)c1OC", "activation": "inconclusive: 37.9%"}, {"compound": "COc1cccc(N2CC(NC(=O)c3ccc4ccccc4c3)CC2=O)c1", "note": "(stereo not given)", "activation": "inconclusive: 33.3%"}, {"compound": "Cc1ccc(C(=O)NC(=S)NNC(=O)CCN2CCOCC2)cc1", "activation": "inactive: 2.58%"}]}]}
